Results are given in words; binding and its absence hold for the method and conditions named. Binding seen in cells or lysates may run through a third protein. Some entries that bind do so weakly or less than the wild type.
Biological target: Sp1 (human (endogenous in hTERT-airway smooth muscle cells)), P08047
Experiment: co-IP; 500 µg lysate of airway smooth muscle cells (1% IGEPAL buffer, 20 mM Tris-HCl pH 7.5, 120 mM NaCl) incubated with 2 µg anti-Sp1 antibody overnight at 4°C, Protein A-agarose; blot for β-catenin; cells untreated or stimulated with TGF-β (2 ng/ml) for 16 hours
Settings: remark: other sources report otherwise

B1: β-catenin, P35222 1-781 (protein)
chain: MATQADLMELDMAMEPDRKAAVSHWQQQSYLDSGIHSGATTTAPSLSGKGNPEEEDVDTSQVLYEWEQGFSQSFTQEQVADIDGQYAMTRAQRVRAAMFPETLDEGMQIPSTQFDAAHPTNVQRLAEPSQMLKHAVVNLINYQDDAELATRAIPELTKLLNDEDQVVVNKAAVMVHQLSKKEASRHAIMRSPQMVSAIVRTMQNTNDVETARCTAGTLHNLSHHREGLLAIFKSGGIPALVKMLGSPVDSVLFYAITTLHNLLLHQEGAKMAVRLAGGLQKMVALLNKTNVKFLAITTDCLQILAYGNQESKLIILASGGPQALVNIMRTYTYEKLLWTTSRVLKVLSVCSSNKPAIVEAGGMQALGLHLTDPSQRLVQNCLWTLRNLSDAATKQEGMEGLLGTLVQLLGSDDINVVTCAAGILSNLTCNNYKNKMMVCQVGGIEALVRTVLRAGDREDITEPAICALRHLTSRHQEAEMAQNAVRLHYGLPVVVKLLHPPSHWPLIKATVGLIRNLALCPANHAPLREQGAIPRLVQLLVRAHQDTQRRTSMGGTQQQFVEGVRMEEIVEGCTGALHILARDVHNRIVIRGLNTIPLFVQLLYSPIENIQRVAAGVLCELAQDKEAAEAIEAEGATAPLTELLHSRNEGVATYAAAVLFRMSEDKPQDYKKRLSVELTSSLFRTEPMAWNETADLGLDIGAQGEPLGYRQDDPSYRSFHSGGYGQDALGMDPMMEHEMGGHHPGADYPVDGLPDLGHAQDLMDGLPPGDSNQLAWFDTDL
With B1 the binding was “binds”.

— paper PMC3984265
